The source of these data is article PMC12752551.

Test [1] addresses T1, Flag-TREX1 (three-prime repair exonuclease 1) (UniProt Q9NSU2).
T1 sequence: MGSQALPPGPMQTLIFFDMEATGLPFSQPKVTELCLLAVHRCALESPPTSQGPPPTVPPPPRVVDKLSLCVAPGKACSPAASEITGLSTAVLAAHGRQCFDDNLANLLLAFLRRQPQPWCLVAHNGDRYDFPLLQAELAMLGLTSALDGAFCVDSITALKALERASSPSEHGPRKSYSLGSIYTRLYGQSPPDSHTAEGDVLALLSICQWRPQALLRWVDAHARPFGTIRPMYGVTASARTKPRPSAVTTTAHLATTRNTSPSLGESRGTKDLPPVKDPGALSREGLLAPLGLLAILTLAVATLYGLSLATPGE
As to the kind of experiment: co-IP; A549 or H1299 cells stably expressing RFWD3 shRNA or control, transfected with Flag-TREX1 for 48 h; lysate, western blot. On the technique in general: A western blot detects proteins with antibodies after separation by electrophoresis.

Test [2] has as its target T1, Flag-TREX1 (three-prime repair exonuclease 1). The test can be described thus: co-IP; competitive co-IP: HEK293T co-transfected with Flag-TREX1, Myc-TRIM24 and HA-RFWD3, one of the latter two in rising amounts (4, 6, 8 µg), 48 h; lysate, western blot.
Test [3] shares this target. As to the kind of experiment: co-IP; HEK293T transfected with HA-RFWD3 and Flag-TREX1 or empty vector; lysate, Protein A/G PLUS-Agarose, western blot.
In test [4] the target is T2, RFWD3, endogenous (human (endogenous in A549 and H1299)) (UniProt Q6PCD5).
T2 sequence: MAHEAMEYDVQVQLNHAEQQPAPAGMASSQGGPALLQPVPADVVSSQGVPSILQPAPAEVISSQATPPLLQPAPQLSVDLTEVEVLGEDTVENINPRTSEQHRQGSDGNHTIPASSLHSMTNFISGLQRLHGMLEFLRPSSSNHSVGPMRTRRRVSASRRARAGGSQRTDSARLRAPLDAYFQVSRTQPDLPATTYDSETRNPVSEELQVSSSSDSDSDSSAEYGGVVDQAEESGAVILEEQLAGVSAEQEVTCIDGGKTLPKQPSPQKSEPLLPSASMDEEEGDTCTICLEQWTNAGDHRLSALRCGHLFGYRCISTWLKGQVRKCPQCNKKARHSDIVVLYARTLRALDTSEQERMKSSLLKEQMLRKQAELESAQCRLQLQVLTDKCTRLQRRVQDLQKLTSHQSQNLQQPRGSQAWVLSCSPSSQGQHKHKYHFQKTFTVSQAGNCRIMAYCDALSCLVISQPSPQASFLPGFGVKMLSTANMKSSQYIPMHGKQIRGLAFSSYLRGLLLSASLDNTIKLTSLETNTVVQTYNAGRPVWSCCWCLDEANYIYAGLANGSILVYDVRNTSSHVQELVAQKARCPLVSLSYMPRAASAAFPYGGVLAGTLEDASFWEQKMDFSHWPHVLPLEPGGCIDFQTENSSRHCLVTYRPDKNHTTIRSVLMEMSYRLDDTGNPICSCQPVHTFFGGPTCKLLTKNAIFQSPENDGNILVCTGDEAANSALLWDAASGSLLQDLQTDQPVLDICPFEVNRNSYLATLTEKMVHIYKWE
The test can be described thus: proximity ligation; Duolink in situ PLA with anti-RFWD3 and anti-TREX1 antibodies in fixed H1299 and A549 cells, endogenous proteins; no primary antibodies as negative control.

Test [5] has as its target T2, RFWD3, endogenous (human (endogenous in A549 and H1299)). As to the kind of experiment: co-IP; endogenous proteins of A549 and H1299 lysates; antibody (2 µg) and Protein A/G PLUS-Agarose at 4 °C overnight; IP lysis buffer with 137 mM NaCl, 0.5% NP-40; western blot.

No constants are given. Whether binding was seen depends on the method and setting. In cells and extracts the contact can be indirect. Some entries that bind do so weakly or less than the wild type. For part of these data: Tags and fused reporters may be left off the sequences shown.

B1: TRIM24, endogenous (protein, UniProt O15164 1-1050)
chain: MEVAVEKAVAAAAAASAAASGGPSAAPSGENEAESRQGPDSERGGEAARLNLLDTCAVCHQNIQSRAPKLLPCLHSFCQRCLPAPQRYLMLPAPMLGSAETPPPVPAPGSPVSGSSPFATQVGVIRCPVCSQECAERHIIDNFFVKDTTEVPSSTVEKSNQVCTSCEDNAEANGFCVECVEWLCKTCIRAHQRVKFTKDHTVRQKEEVSPEAVGVTSQRPVFCPFHKKEQLKLYCETCDKLTCRDCQLLEHKEHRYQFIEEAFQNQKVIIDTLITKLMEKTKYIKFTGNQIQNRIIEVNQNQKQVEQDIKVAIFTLMVEINKKGKALLHQLESLAKDHRMKLMQQQQEVAGLSKQLEHVMHFSKWAVSSGSSTALLYSKRLITYRLRHLLRARCDASPVTNNTIQFHCDPSFWAQNIINLGSLVIEDKESQPQMPKQNPVVEQNSQPPSGLSSNQLSKFPTQISLAQLRLQHMQQQVMAQRQQVQRRPAPVGLPNPRMQGPIQQPSISHQQPPPRLINFQNHSPKPNGPVLPPHPQQLRYPPNQNIPRQAIKPNPLQMAFLAQQAIKQWQISSGQGTPSTTNSTSSTPSSPTITSAAGYDGKAFGSPMIDLSSPVGGSYNLPSLPDIDCSSTIMLDNIVRKDTNIDHGQPRPPSNRTVQSPNSSVPSPGLAGPVTMTSVHPPIRSPSASSVGSRGSSGSSSKPAGADSTHKVPVVMLEPIRIKQENSGPPENYDFPVVIVKQESDEESRPQNANYPRSILTSLLLNSSQSSTSEETVLRSDAPDSTGDQPGLHQDNSSNGKSEWLDPSQKSPLHVGETRKEDDPNEDWCAVCQNGGELLCCEKCPKVFHLSCHVPTLTNFPSGEWICTFCRDLSKPEVEYDCDAPSHNSEKKKTEGLVKLTPIDKRKCERLLLFLYCHEMSLAFQDPVPLTVPDYYKIIKNPMDLSTIKKRLQEDYSMYSKPEDFVADFRLIFQNCAEFNEPDSEVANAGIKLENYFEELLKNLYPEKRFPKPEFRNESEDNKFSDDSDDDFVQPRKKRLKSIEERQLLK
For the molecule B1, the binding result in test [1] is “binds”.

B2: Myc-TRIM24 (protein, UniProt O15164 1-1050)
chain: B1 chain
Turning to B2, in test [2], the binding entry is given as “binds”.

B3: HA-RFWD3 (RING Finger and WD Repeat Domain 3) (protein, UniProt Q6PCD5 1-774)
chain: T2 sequence
For the molecule B3, the binding entry in test [2] and in test [3] was “binds” throughout.

B4: TREX1, endogenous (protein, UniProt Q9NSU2 1-314)
chain: T1 sequence
Regarding B4, the binding entry in test [4] and in test [5] was “binds” throughout.
